# The list shows a part of the results. Most of these values are background signal.
# Legend:
# Experiment in all cases: fluorescence intensity of antibody binding to polysaccharide-coupled beads; higher = stronger binding
# [1] = target: pneumococcal polysaccharide Pn28A
# [2] = target: pneumococcal polysaccharide Pn28F
# [3] = target: pneumococcal polysaccharide Pn29
# [4] = target: pneumococcal polysaccharide Pn3
# [5] = target: pneumococcal polysaccharide Pn31
# [6] = target: pneumococcal polysaccharide Pn32A
# [7] = target: pneumococcal polysaccharide Pn32F
# [8] = target: pneumococcal polysaccharide Pn33A
# [9] = target: pneumococcal polysaccharide Pn33B
# [10] = target: pneumococcal polysaccharide Pn33C
# [11] = target: pneumococcal polysaccharide Pn33D
# [12] = target: pneumococcal polysaccharide Pn33F
# [13] = target: pneumococcal polysaccharide Pn34
# [14] = target: pneumococcal polysaccharide Pn35A
# [15] = target: pneumococcal polysaccharide Pn35B
# [16] = target: pneumococcal polysaccharide Pn35C
# [17] = target: pneumococcal polysaccharide Pn35F
# [18] = target: pneumococcal polysaccharide Pn36
# [19] = target: pneumococcal polysaccharide Pn37
# [20] = target: pneumococcal polysaccharide Pn38
# [21] = target: pneumococcal polysaccharide Pn39
# [22] = target: pneumococcal polysaccharide Pn4
# [23] = target: pneumococcal polysaccharide Pn40
# [24] = target: pneumococcal polysaccharide Pn41A
# [25] = antibody concentration 2337.65 ng/mL
# [26] = antibody concentration 12500 ng/mL
# [27] = antibody concentration 0.1 ng/mL
# [28] = antibody concentration 0.534724 ng/mL
# [29] = antibody concentration 2.8593 ng/mL
# [30] = antibody concentration 15.2894 ng/mL
# [31] = antibody concentration 81.7561 ng/mL
# [32] = antibody concentration 437.17 ng/mL
binder,measurement,setting,value
4-80.2 (protein) chain 1: QVQLQESGPGLVKPSETLSLTCAVSGDSFSSYWWSWIRQPPGKGLEWIGEINGNVGSTNYNPSLKSRVTISKDASKNQFSLKLSSVTAADTAVYYCARYKEYWGQGVLVTVSS chain 2: DVVMTQSPLSLPITPGQPASISCRSSQSLVHSNGNTYLSWYQQKPGQPPRRLIYEVSNRDSGVPDRFSGSGAGTDFTLKISRVEAEDVGVYYCGQGTHLPYSFGQGTKVEIK,fluorescence intensity,[1]; [25],29 MFI
same,fluorescence intensity,[1]; [26],31 MFI
same,fluorescence intensity,[2]; [27],32 MFI
same,fluorescence intensity,[2]; [28],32.5 MFI
same,fluorescence intensity,[2]; [29],28 MFI
same,fluorescence intensity,[2]; [30],31.5 MFI
same,fluorescence intensity,[2]; [31],30.5 MFI
same,fluorescence intensity,[2]; [32],31.5 MFI
same,fluorescence intensity,[2]; [25],32 MFI
same,fluorescence intensity,[2]; [26],33 MFI
same,fluorescence intensity,[3]; [27],17.5 MFI
same,fluorescence intensity,[3]; [28],18.5 MFI
same,fluorescence intensity,[3]; [29],15.8 MFI
same,fluorescence intensity,[3]; [30],16.2 MFI
same,fluorescence intensity,[3]; [31],17.5 MFI
same,fluorescence intensity,[3]; [32],17.5 MFI
same,fluorescence intensity,[3]; [25],18.5 MFI
same,fluorescence intensity,[3]; [26],34.5 MFI
same,fluorescence intensity,[4]; [27],14.5 MFI
same,fluorescence intensity,[4]; [28],14.8 MFI
same,fluorescence intensity,[4]; [29],14 MFI
same,fluorescence intensity,[4]; [30],17 MFI
same,fluorescence intensity,[4]; [31],30.5 MFI
same,fluorescence intensity,[4]; [32],117 MFI
same,fluorescence intensity,[4]; [25],524 MFI
same,fluorescence intensity,[4]; [26],1390 MFI
same,fluorescence intensity,[5]; [27],15 MFI
same,fluorescence intensity,[5]; [28],15 MFI
same,fluorescence intensity,[5]; [29],15 MFI
same,fluorescence intensity,[5]; [30],15 MFI
same,fluorescence intensity,[5]; [31],14.5 MFI
same,fluorescence intensity,[5]; [32],14 MFI
same,fluorescence intensity,[5]; [25],16.5 MFI
same,fluorescence intensity,[5]; [26],19.5 MFI
same,fluorescence intensity,[6]; [27],18.8 MFI
same,fluorescence intensity,[6]; [28],19.5 MFI
same,fluorescence intensity,[6]; [29],17.5 MFI
same,fluorescence intensity,[6]; [30],18 MFI
same,fluorescence intensity,[6]; [31],17.2 MFI
same,fluorescence intensity,[6]; [32],18 MFI
same,fluorescence intensity,[6]; [25],19.5 MFI
same,fluorescence intensity,[6]; [26],27 MFI
same,fluorescence intensity,[7]; [27],30.2 MFI
same,fluorescence intensity,[7]; [28],28 MFI
same,fluorescence intensity,[7]; [29],28.5 MFI
same,fluorescence intensity,[7]; [30],28.2 MFI
same,fluorescence intensity,[7]; [31],29.5 MFI
same,fluorescence intensity,[7]; [32],27.5 MFI
same,fluorescence intensity,[7]; [25],30.5 MFI
same,fluorescence intensity,[7]; [26],37 MFI
same,fluorescence intensity,[8]; [27],20.8 MFI
same,fluorescence intensity,[8]; [28],19.5 MFI
same,fluorescence intensity,[8]; [29],17.5 MFI
same,fluorescence intensity,[8]; [30],19 MFI
same,fluorescence intensity,[8]; [31],17.8 MFI
same,fluorescence intensity,[8]; [32],18.2 MFI
same,fluorescence intensity,[8]; [25],29.2 MFI
same,fluorescence intensity,[8]; [26],104 MFI
same,fluorescence intensity,[9]; [27],20 MFI
same,fluorescence intensity,[9]; [28],19 MFI
same,fluorescence intensity,[9]; [29],18 MFI
same,fluorescence intensity,[9]; [30],19.2 MFI
same,fluorescence intensity,[9]; [31],18.5 MFI
same,fluorescence intensity,[9]; [32],19.8 MFI
same,fluorescence intensity,[9]; [25],19.2 MFI
same,fluorescence intensity,[9]; [26],23.5 MFI
same,fluorescence intensity,[10]; [27],21.5 MFI
same,fluorescence intensity,[10]; [28],20 MFI
same,fluorescence intensity,[10]; [29],19.8 MFI
same,fluorescence intensity,[10]; [30],20 MFI
same,fluorescence intensity,[10]; [31],19 MFI
same,fluorescence intensity,[10]; [32],21 MFI
same,fluorescence intensity,[10]; [25],20 MFI
same,fluorescence intensity,[10]; [26],28.5 MFI
same,fluorescence intensity,[11]; [27],18.8 MFI
same,fluorescence intensity,[11]; [28],18 MFI
same,fluorescence intensity,[11]; [29],16.5 MFI
same,fluorescence intensity,[11]; [30],18 MFI
same,fluorescence intensity,[11]; [31],15.2 MFI
same,fluorescence intensity,[11]; [32],14.5 MFI
same,fluorescence intensity,[11]; [25],16 MFI
same,fluorescence intensity,[11]; [26],22 MFI
same,fluorescence intensity,[12]; [27],15.5 MFI
same,fluorescence intensity,[12]; [28],13.5 MFI
same,fluorescence intensity,[12]; [29],13.5 MFI
same,fluorescence intensity,[12]; [30],13.8 MFI
same,fluorescence intensity,[12]; [31],14.5 MFI
same,fluorescence intensity,[12]; [32],14 MFI
same,fluorescence intensity,[12]; [25],16 MFI
same,fluorescence intensity,[12]; [26],42.5 MFI
same,fluorescence intensity,[13]; [27],14 MFI
same,fluorescence intensity,[13]; [28],14.5 MFI
same,fluorescence intensity,[13]; [29],14 MFI
same,fluorescence intensity,[13]; [30],14.5 MFI
same,fluorescence intensity,[13]; [31],15.5 MFI
same,fluorescence intensity,[13]; [32],14 MFI
same,fluorescence intensity,[13]; [25],15 MFI
same,fluorescence intensity,[13]; [26],16 MFI
same,fluorescence intensity,[14]; [27],18.5 MFI
same,fluorescence intensity,[14]; [28],17 MFI
same,fluorescence intensity,[14]; [29],18 MFI
same,fluorescence intensity,[14]; [30],18.2 MFI
same,fluorescence intensity,[14]; [31],16.2 MFI
same,fluorescence intensity,[14]; [32],17 MFI
same,fluorescence intensity,[14]; [25],20 MFI
same,fluorescence intensity,[14]; [26],34.2 MFI
same,fluorescence intensity,[15]; [27],19 MFI
same,fluorescence intensity,[15]; [28],19 MFI
same,fluorescence intensity,[15]; [29],19.5 MFI
same,fluorescence intensity,[15]; [30],18 MFI
same,fluorescence intensity,[15]; [31],18.8 MFI
same,fluorescence intensity,[15]; [32],17.8 MFI
same,fluorescence intensity,[15]; [25],20.5 MFI
same,fluorescence intensity,[15]; [26],32.2 MFI
same,fluorescence intensity,[16]; [27],20 MFI
same,fluorescence intensity,[16]; [28],19.5 MFI
same,fluorescence intensity,[16]; [29],20 MFI
same,fluorescence intensity,[16]; [30],20 MFI
same,fluorescence intensity,[16]; [31],20.5 MFI
same,fluorescence intensity,[16]; [32],20.5 MFI
same,fluorescence intensity,[16]; [25],21.5 MFI
same,fluorescence intensity,[16]; [26],22.8 MFI
same,fluorescence intensity,[17]; [27],17.2 MFI
same,fluorescence intensity,[17]; [28],20.5 MFI
same,fluorescence intensity,[17]; [29],18 MFI
same,fluorescence intensity,[17]; [30],20 MFI
same,fluorescence intensity,[17]; [31],21 MFI
same,fluorescence intensity,[17]; [32],18.8 MFI
same,fluorescence intensity,[17]; [25],20.5 MFI
same,fluorescence intensity,[17]; [26],23 MFI
same,fluorescence intensity,[18]; [27],15.8 MFI
same,fluorescence intensity,[18]; [28],16.5 MFI
same,fluorescence intensity,[18]; [29],16 MFI
same,fluorescence intensity,[18]; [30],15.5 MFI
same,fluorescence intensity,[18]; [31],15.5 MFI
same,fluorescence intensity,[18]; [32],16.5 MFI
same,fluorescence intensity,[18]; [25],18 MFI
same,fluorescence intensity,[18]; [26],30 MFI
same,fluorescence intensity,[19]; [27],26.5 MFI
same,fluorescence intensity,[19]; [28],26.5 MFI
same,fluorescence intensity,[19]; [29],26.2 MFI
same,fluorescence intensity,[19]; [30],26.5 MFI
same,fluorescence intensity,[19]; [31],25.5 MFI
same,fluorescence intensity,[19]; [32],27.5 MFI
same,fluorescence intensity,[19]; [25],32 MFI
same,fluorescence intensity,[19]; [26],40.5 MFI
same,fluorescence intensity,[20]; [27],26.5 MFI
same,fluorescence intensity,[20]; [28],27 MFI
same,fluorescence intensity,[20]; [29],27.2 MFI
same,fluorescence intensity,[20]; [30],26 MFI
same,fluorescence intensity,[20]; [31],26.2 MFI
same,fluorescence intensity,[20]; [32],23.8 MFI
same,fluorescence intensity,[20]; [25],28.5 MFI
same,fluorescence intensity,[20]; [26],35.8 MFI
same,fluorescence intensity,[21]; [27],19 MFI
same,fluorescence intensity,[21]; [28],19 MFI
same,fluorescence intensity,[21]; [29],18.5 MFI
same,fluorescence intensity,[21]; [30],18 MFI
same,fluorescence intensity,[21]; [31],19.5 MFI
same,fluorescence intensity,[21]; [32],18.2 MFI
same,fluorescence intensity,[21]; [25],19.5 MFI
same,fluorescence intensity,[21]; [26],31.2 MFI
same,fluorescence intensity,[22]; [27],20 MFI
same,fluorescence intensity,[22]; [28],18.5 MFI
same,fluorescence intensity,[22]; [29],19 MFI
same,fluorescence intensity,[22]; [30],20 MFI
same,fluorescence intensity,[22]; [31],18.5 MFI
same,fluorescence intensity,[22]; [32],18.2 MFI
same,fluorescence intensity,[22]; [25],21.5 MFI
same,fluorescence intensity,[22]; [26],22 MFI
same,fluorescence intensity,[23]; [27],17.5 MFI
same,fluorescence intensity,[23]; [28],17.5 MFI
same,fluorescence intensity,[23]; [29],16 MFI
same,fluorescence intensity,[23]; [30],16.5 MFI
same,fluorescence intensity,[23]; [31],16 MFI
same,fluorescence intensity,[23]; [32],18 MFI
same,fluorescence intensity,[23]; [25],17.2 MFI
same,fluorescence intensity,[23]; [26],23.5 MFI
same,fluorescence intensity,[24]; [27],24.5 MFI
same,fluorescence intensity,[24]; [28],24 MFI

# Rewritten as tab-separated lines: part of the list above.
binder	measurement	setting	value
4-80.2 (protein) chain 1: QVQLQESGPGLVKPSETLSLTCAVSGDSFSSYWWSWIRQPPGKGLEWIGEINGNVGSTNYNPSLKSRVTISKDASKNQFSLKLSSVTAADTAVYYCARYKEYWGQGVLVTVSS chain 2: DVVMTQSPLSLPITPGQPASISCRSSQSLVHSNGNTYLSWYQQKPGQPPRRLIYEVSNRDSGVPDRFSGSGAGTDFTLKISRVEAEDVGVYYCGQGTHLPYSFGQGTKVEIK	fluorescence intensity	[11]; [30]	18 MFI
same	fluorescence intensity	[11]; [31]	15.2 MFI
same	fluorescence intensity	[11]; [32]	14.5 MFI
same	fluorescence intensity	[11]; [25]	16 MFI
same	fluorescence intensity	[11]; [26]	22 MFI

# Given tab-delimited: part of the list above
binder	measurement	setting	value
4-80.2 (protein) chain 1: QVQLQESGPGLVKPSETLSLTCAVSGDSFSSYWWSWIRQPPGKGLEWIGEINGNVGSTNYNPSLKSRVTISKDASKNQFSLKLSSVTAADTAVYYCARYKEYWGQGVLVTVSS chain 2: DVVMTQSPLSLPITPGQPASISCRSSQSLVHSNGNTYLSWYQQKPGQPPRRLIYEVSNRDSGVPDRFSGSGAGTDFTLKISRVEAEDVGVYYCGQGTHLPYSFGQGTKVEIK	fluorescence intensity	[22]; [27]	20 MFI
same	fluorescence intensity	[22]; [28]	18.5 MFI
same	fluorescence intensity	[22]; [29]	19 MFI
same	fluorescence intensity	[22]; [30]	20 MFI
same	fluorescence intensity	[22]; [31]	18.5 MFI

# Source: the supplement of paper PMC11438910
